Data reported in PubChem BioAssay AID493014 (National Center for Advancing Translational Sciences (NCATS), 2011).
Where “and” joins values, the source holds several entries; their conditions need not be identical. Equal entries are not always repeated. The list shows a part of the results. Further columns of the screen follow, without active or inactive calls. Compounds called inactive in the main read-out are mostly missing here. Words in brackets tell the shape of the fitted curve; partial curves, single points and poor fits give uncertain potencies.

Test: qHTS Assay to Find Inhibitors of Chronic Active B-Cell Receptor Signaling
Details: ABC-DLBCL IkBa-CBG/CBR reporter, luminescence ratio (green luciferase fused to IkBa over red control in TMD8 lymphoma cells), 4 h
How it was run: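 Concentration-response series (up to 46 uM) were applied to TMD8 dual-reporter cells for 4 h at 37C with doxycycline. Green/red ratio, after filter-overlap correction, defined %Activity; red signal alone was normalised to basal cells and zero luminescence.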

[1] = measured here: CBR red luminescence, cell number
[2] = measured here: IkBa-CBG green luminescence

Cc1cccc(/C(N)=N/OC(=O)c2cccs2)c1
AC50 [1]: 3.98 µM [rising, single point]

Cc1ccc(S(=O)(=O)NCc2ccncc2)c(C)c1C
AC50 [1]: 15.8 µM [falling, partial curve]

CCc1cccc(C)c1NC(=S)N(CCOC)C(C)c1ccco1 (configuration not stated)
AC50 [1]: 0.794 µM [rising, full curve, poor fit]

O=C1NC2(CCCCCC2)C(=O)N1Cc1ccccc1
AC50 [1]: 35.5 µM [falling, single point]

CCCCCCC(=O)NN1CCN(C)CC1
AC50 [1]: 0.58 µM [falling, full curve, poor fit]

COc1ccccc1NC(=O)CSC1=Nc2ccccc2C2=NC(CC(=O)NCCc3ccccc3)C(=O)N12 (configuration not stated)
AC50 [1]: 8.91 µM [falling, partial curve, poor fit]

O=C(CCc1ccccc1)Nc1ccc(N2CCOCC2)cc1
AC50 [1]: 22.4 µM [rising, single point]

Cc1cc(/C=C(\C#N)C(=O)NCc2cccs2)c(C)[nH]1
AC50 [1]: 10 µM [falling, partial curve, poor fit]

COc1ccc2nc(NC(=O)CN3C(=O)NC4(CCCCC4)C3=O)sc2c1
AC50 [1]: 22.4 µM [falling, single point]

c1ccc(Cn2nnc(CNc3ccccc3)c2-c2c(CNc3ccccc3)nnn2Cc2ccccc2)cc1
AC50 [1]: 35.5 µM [falling, single point]

CC(=O)c1c(C)[nH]c(C(=O)OCC(=O)N2CC(=O)Nc3ccccc32)c1C
AC50 [1]: 29.1 µM [rising, single point]

COc1cc(NC(=O)c2cc3sccc3n2C)cc(OC)c1
AC50 [1]: 0.13 µM [falling, full curve]

Cn1cccc1C(=O)OCC(=O)NCc1ccc2c(c1)OCO2
AC50 [1]: 6.51 µM [rising, single point]

CC(C)[C@H](NC(=O)c1ccccc1)C(=O)OCC(=O)c1ccc2c(c1)NC(=O)CO2
AC50 [1]: 4.11 µM [rising, full curve, poor fit]

O=C(O)c1ccc(CN2C(=O)c3cccc4c([N+](=O)[O-])ccc(c34)C2=O)cc1
AC50 [2]: 35.5 µM [falling, single point]

CC1=Nc2cc(C(=O)NC3CCCCC3)ccc2Sc2ccc(Cl)cc21
AC50 [1]: 2 µM [rising, full curve, poor fit]
AC50 [2]: 1.41 µM [falling, full curve]

Cc1cc(C)c(NC(=O)c2ccccc2N(C)S(C)(=O)=O)c(C)c1
AC50 [1]: 2.06 µM [falling, single point]

Nc1c(C(=O)Nc2ccc(F)cc2)nnn1-c1cccc(C(F)(F)F)c1
AC50 [1]: 2.82 µM [falling, single point]

CCCCCCCn1c2c(c(=N)c3c1CCC3)CCCC2
AC50 [1]: 12.6 µM [falling, partial curve, poor fit]

COc1ccccc1C(=O)n1nc(-c2cccnc2)nc1NCc1ccccc1
AC50 [1]: 17.8 µM [falling, partial curve, poor fit]

C[C@@H](C(=O)NC1CCCCC1)N1C(=O)N2CCc3c([nH]c4ccccc34)[C@@]2(C)C1=O
AC50 [1]: 17.8 µM [falling, partial curve, poor fit]

COc1ccc(-c2csc3ncn(CC(=O)N4CCOCC4)c(=O)c23)cc1
AC50 [1]: 3.16 µM [rising, single point]

CC(=O)c1c(C)[nH]c(C(=O)OCC(=O)Nc2ccccc2Cl)c1C
AC50 [1]: 12.6 µM [falling, single point]

O=C(O)c1ccc(/C=C(\c2nc3ccccc3[nH]2)c2nc3ccccc3s2)cc1
AC50 [1]: 35.5 µM [falling, single point]

O/N=C1/CC/C(=N\O)c2nn(-c3ccccc3)nc21
AC50 [2]: 3.26 µM [falling, partial curve, poor fit]

CN(C)S(=O)(=O)c1ccc(Cl)c(C(=O)NCc2ccco2)c1
AC50 [1]: 4.11 µM [falling, single point]

C/C(=N\NC(=O)c1c([N+](=O)[O-])c(C)nn1C)c1ccc(NC(=O)C2CCCC2)cc1
AC50 [1]: 11.2 µM [rising, partial curve]
AC50 [2]: 7.94 µM [falling, partial curve]

COCCNc1nc(C)cc(-c2cc(-c3ccc(Cl)cc3)on2)n1
AC50 [1]: 2.82 µM [falling, partial curve, poor fit]

CCNCCC(CCC(C)C)c1ccc2c(c1)OCO2 (configuration not stated)
AC50 [1]: 25.1 µM [falling, single point]

CCc1ccc(NC(=O)CSc2nc(=O)n(CCCN3CCOCC3)c3c2CCCC3)cc1
AC50 [1]: 6.51 µM [rising, single point]
AC50 [2]: 7.31 µM [falling, partial curve, poor fit]

C/C(NC(=O)c1cccs1)=C1\C(=O)C[C@@H]2[C@H]1C2(C)C
AC50 [1]: 15.8 µM [rising, partial curve]
AC50 [2]: 17.8 µM [falling, single point]

COc1ccc(CC(=O)N2CCN(c3ccccc3OC)CC2)cc1OC
AC50 [1]: 35.5 µM [rising, single point]

COc1ccc(C(=O)N2CCN(S(=O)(=O)c3ccc4c(c3)OCCO4)CC2)cc1OC
AC50 [1]: 2.06 µM [rising, partial curve, poor fit]

CC(C)(CO)N1CCN(C(=S)Nc2ccccc2)CC1
AC50 [1]: 35.5 µM [rising, single point]

CC(C)CCOCc1nc2sc3c(c2c(=O)[nH]1)CCC(C)C3 (configuration not stated)
AC50 [1]: 10.3 µM [rising, partial curve]

C[C@@H]1CC[C@]2(O[C@@H](CCO)C[C@@H](O)[C@@H]2O)O1
AC50 [1]: 12.6 µM [rising, single point]

O=C(NO)c1ccc(OC(F)F)cc1
AC50 [1]: 6.31 µM [falling, single point]

Cc1cnc(NC(=O)CSc2nnc(-c3ccccc3)o2)s1
AC50 [1]: 6.51 µM [falling, partial curve]

COc1cc(/C=C2\SC(=Nc3ccccc3)N(CCc3c[nH]c4ccccc34)C2=O)ccc1OC(C)C(=O)O (configuration not stated)
AC50 [1]: 0.517 µM [falling, partial curve, poor fit]

COCCN(CC(=O)Nc1ccccc1C(F)(F)F)C(=O)/C=C/c1ccc2ccccc2n1
AC50 [1]: 0.326 µM [falling, full curve, poor fit]

Cc1ccccc1-n1nc(-c2ccc(N)cc2)cc1N
AC50 [1]: 3.26 µM [rising, partial curve, poor fit]

O=S1(=O)N=C(N(CCO)/N=C/c2ccccc2)c2ccccc21
AC50 [1]: 1 µM [falling, full curve, poor fit]

Cc1ccc(-c2ccc(/C=C(\C#N)C(N)=S)n2C)cc1
AC50 [1]: 14.1 µM [falling, single point]

O=C(Nc1cccc(NC(=S)NC(=O)c2cccs2)c1)c1ccccc1
AC50 [1]: 0.58 µM [falling, full curve, poor fit]

O=C(Cn1sc2ccccc2c1=O)NC12CC3CC(CC(C3)C1)C2
AC50 [1]: 14.6 µM [rising, single point]

CC(C)(C)Nc1ncnc2c1cnn2-c1ccccc1
AC50 [1]: 29.1 µM [falling, single point]

COc1ccc(OCCn2cnc3ccccc32)cc1
AC50 [1]: 7.94 µM [rising, partial curve]

COc1cccc(C(=O)Nc2ccccc2N2CCCC2)c1
AC50 [1]: 29.1 µM [rising, single point]

CC1CCC(C(C)C)C(OC(=O)Cn2c(-c3ccccc3)[n+](C)c3ccccc32)C1 (configuration not stated)
AC50 [1]: 11.6 µM [falling, partial curve] and 10.3 µM [falling, partial curve]
AC50 [2]: 6.51 µM [rising, partial curve, poor fit] and 16.4 µM [rising, partial curve, poor fit]

CCCc1nc2oc3c(NCC4CCCO4)ncnc3c2c2c1COC(C)(C)C2 (configuration not stated)
AC50 [1]: 6.31 µM [rising, partial curve, poor fit]

c1ccc(N(c2ccccc2)c2nc(N3CCOCC3)nc(N3CCOCC3)n2)cc1
AC50 [1]: 4.47 µM [rising, full curve, poor fit]

O=C(CC1CCCCC1)NC1CCCC1
AC50 [1]: 20.6 µM [rising, partial curve, poor fit]

CC(=O)Nc1ccc(C(=O)COC(=O)c2ccco2)c(F)c1
AC50 [1]: 32.6 µM [rising, single point]

CCCc1cc(=O)[nH]c(SCCOc2ccc(OCC)cc2)n1
AC50 [1]: 23.1 µM [rising, single point]

O=C(/C=C/c1ccc(Cl)c(Cl)c1)NCc1ccco1
AC50 [1]: 6.51 µM [rising, partial curve, poor fit]

CCC(C)Nc1nc(Cl)nc(N(C#N)CN2C(=O)c3ccccc3S2(=O)=O)n1 (configuration not stated)
AC50 [1]: 8.91 µM [rising, partial curve, poor fit]

COc1cc(C(=O)Nc2cc(-c3cn4cccnc4n3)ccc2C)cc(OC)c1OC
AC50 [1]: 28.2 µM [rising, single point]

Cc1ccc(OC(=O)c2oc3ccc(F)cc3c2C)c(C)c1
AC50 [1]: 35.5 µM [rising, single point]

O=C(Nc1ncccn1)c1cccs1
AC50 [1]: 15.8 µM [falling, single point]

CCOC(=O)CN1C(=O)C2(OCCCO2)c2ccccc21
AC50 [1]: 29.1 µM [rising, partial curve, poor fit]

Cc1ncsc1C(=O)Nc1nc2c(s1)CCCC2
AC50 [1]: 6.31 µM [falling, partial curve]

CC(C)(C)c1ccc(S(=O)(=O)N2CCN(CC(=O)NC(=O)NC3CCCCC3)CC2)cc1
AC50 [1]: 7.31 µM [rising, partial curve, poor fit]
